{"sequences": {"note": "Protein sequences, listed by entry. Tags and fused reporters are not part of them. Lines headed by an entry give the natural chain unless they say otherwise; changes in a name come on top.", "UniProt P21243": "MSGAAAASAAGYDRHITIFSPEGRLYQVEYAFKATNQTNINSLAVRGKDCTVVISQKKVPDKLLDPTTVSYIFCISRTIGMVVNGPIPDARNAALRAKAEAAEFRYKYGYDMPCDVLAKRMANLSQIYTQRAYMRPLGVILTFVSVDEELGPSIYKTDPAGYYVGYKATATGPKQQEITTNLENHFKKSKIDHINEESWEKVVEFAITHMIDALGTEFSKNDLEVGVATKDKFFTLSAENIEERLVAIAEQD", "UniProt P38737": "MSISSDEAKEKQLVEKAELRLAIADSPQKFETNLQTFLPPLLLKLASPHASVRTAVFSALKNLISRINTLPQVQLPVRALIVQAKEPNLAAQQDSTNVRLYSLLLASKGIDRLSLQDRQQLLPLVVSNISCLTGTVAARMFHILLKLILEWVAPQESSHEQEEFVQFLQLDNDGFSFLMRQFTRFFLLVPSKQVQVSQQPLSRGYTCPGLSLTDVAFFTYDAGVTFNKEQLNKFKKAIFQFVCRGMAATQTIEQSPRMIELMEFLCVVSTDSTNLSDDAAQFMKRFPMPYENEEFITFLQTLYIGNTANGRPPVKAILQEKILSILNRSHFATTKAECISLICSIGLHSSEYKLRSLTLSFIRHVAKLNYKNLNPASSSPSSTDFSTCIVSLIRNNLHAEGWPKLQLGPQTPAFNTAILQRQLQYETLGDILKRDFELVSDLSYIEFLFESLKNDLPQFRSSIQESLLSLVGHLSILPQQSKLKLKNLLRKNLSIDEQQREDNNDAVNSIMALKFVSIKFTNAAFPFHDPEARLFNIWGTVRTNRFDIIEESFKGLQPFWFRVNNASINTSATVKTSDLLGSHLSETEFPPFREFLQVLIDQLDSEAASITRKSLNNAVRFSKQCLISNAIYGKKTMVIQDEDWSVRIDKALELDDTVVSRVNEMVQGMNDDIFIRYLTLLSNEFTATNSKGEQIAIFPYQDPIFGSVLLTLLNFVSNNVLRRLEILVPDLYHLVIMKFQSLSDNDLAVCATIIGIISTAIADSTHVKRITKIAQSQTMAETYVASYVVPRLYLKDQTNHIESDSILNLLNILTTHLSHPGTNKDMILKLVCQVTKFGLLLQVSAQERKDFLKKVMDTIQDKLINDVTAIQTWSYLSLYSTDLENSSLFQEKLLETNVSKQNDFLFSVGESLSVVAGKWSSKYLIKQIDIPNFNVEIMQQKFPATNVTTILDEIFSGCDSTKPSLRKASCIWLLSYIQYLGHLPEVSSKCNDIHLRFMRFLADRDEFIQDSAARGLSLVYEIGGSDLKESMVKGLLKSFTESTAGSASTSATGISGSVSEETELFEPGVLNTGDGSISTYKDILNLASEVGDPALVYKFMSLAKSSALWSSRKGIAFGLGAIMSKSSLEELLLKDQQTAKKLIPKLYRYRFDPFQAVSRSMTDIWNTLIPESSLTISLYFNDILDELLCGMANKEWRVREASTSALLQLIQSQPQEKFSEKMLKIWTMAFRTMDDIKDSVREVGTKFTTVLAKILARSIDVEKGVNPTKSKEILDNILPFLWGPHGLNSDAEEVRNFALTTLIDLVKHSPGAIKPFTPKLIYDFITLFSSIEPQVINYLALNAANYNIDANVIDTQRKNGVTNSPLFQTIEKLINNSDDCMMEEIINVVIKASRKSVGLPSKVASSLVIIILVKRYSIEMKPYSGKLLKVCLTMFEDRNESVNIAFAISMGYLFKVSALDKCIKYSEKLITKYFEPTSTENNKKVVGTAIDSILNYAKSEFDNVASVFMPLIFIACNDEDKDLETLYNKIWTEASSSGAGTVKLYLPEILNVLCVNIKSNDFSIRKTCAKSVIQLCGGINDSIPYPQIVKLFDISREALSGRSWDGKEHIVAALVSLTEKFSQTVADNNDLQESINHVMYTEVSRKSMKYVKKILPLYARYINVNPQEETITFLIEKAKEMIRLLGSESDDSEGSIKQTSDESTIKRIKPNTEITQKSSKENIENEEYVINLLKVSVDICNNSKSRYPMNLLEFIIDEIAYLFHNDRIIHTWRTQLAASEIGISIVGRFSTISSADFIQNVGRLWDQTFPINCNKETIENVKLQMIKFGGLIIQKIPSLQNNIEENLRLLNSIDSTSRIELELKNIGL"}, "source": "paper PMC8039559", "molecular_target": "proteasome core particle (S. cerevisiae (endogenous in yeast)) (UniProt P21243)", "assay": "native gel or EMSA; whole-cell yeast lysates by cryo-grinding (50 mM Tris-HCl pH 7.5, 5 mM MgCl2, 1 mM ATP, 1 mM EDTA), 300 ug on a 3.5% acrylamide native gel, 96 V, 2.5 h, 4 °C; fluorescence scan (GFP, Venus) and in-gel LLVY-AMC activity; cells in log phase, after prolonged growth in YPD, 37 °C, nitrogen or glucose starvation, MG132, atg7Δ, rpn4Δ", "note": "No constants are given. Whether binding was seen depends on the method and setting. Some entries that bind do so weakly or less than the wild type.", "data": [{"substance": "Ecm29 (from UniProt P38737 1-1868)", "values": [{"measurement": "binding", "result": "binds"}]}]}
